Results published in article PMC10617771.
No constants are given. Whether binding was seen depends on the method and setting. In cells and extracts the contact can be indirect. Here binding means that the protein was enriched with, or labelled near, the bait; the list need not be complete. Where a sequence is shown, tags or fusion partners need not be part of it.

Target: T1, Myc-DUSP8 of the anti-myc immunocomplexes used for mass spectrometry (mouse) (UniProt O09112)
T1 sequence: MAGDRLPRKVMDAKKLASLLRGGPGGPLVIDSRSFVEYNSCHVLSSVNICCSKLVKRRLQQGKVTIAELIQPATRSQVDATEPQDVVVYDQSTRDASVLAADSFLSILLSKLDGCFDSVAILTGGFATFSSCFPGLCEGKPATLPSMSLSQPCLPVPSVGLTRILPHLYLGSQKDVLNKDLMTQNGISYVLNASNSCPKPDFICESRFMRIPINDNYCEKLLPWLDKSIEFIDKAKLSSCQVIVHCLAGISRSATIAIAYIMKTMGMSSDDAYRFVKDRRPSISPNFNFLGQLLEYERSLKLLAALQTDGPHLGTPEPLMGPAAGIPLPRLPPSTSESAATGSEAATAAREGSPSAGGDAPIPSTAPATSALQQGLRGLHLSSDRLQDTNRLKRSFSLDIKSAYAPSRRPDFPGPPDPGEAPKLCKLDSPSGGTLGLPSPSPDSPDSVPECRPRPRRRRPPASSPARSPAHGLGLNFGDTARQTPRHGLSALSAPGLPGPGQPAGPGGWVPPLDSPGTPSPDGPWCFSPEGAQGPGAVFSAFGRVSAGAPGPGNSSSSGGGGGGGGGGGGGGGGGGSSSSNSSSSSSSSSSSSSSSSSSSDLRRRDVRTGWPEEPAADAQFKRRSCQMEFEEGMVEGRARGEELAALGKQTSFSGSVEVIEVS
Assay: affinity purification with mass spectrometry; anti-myc (DUSP8) immunocomplexes digested with trypsin, LC-MS/MS (LTQ-Orbitrap Elite); cells not given

binding: binds
B1: Pur-α found in the DUSP8 immunocomplexes (protein, UniProt Q00577 1-322)
chain: MADRDSGSEQGGAALGSGGSLGHPGSGSGSGGGGGGGGGGGGSGGGGGGAPGGLQHETQELASKRVDIQNKRFYLDVKQNAKGRFLKIAEVGAGGNKSRLTLSMSVAVEFRDYLGDFIEHYAQLGPSQPPDLAQAQDEPRRALKSEFLVRENRKYYMDLKENQRGRFLRIRQTVNRGPGLGSTQGQTIALPAQGLIEFRDALAKLIDDYGVEEEPAELPEGTSLTVDNKRFFFDVGSNKYGVFMRVSEVKPTYRNSITVPYKVWAKFGHTFCKYSEEMKKIQEKQREKRAACEQLHQQQQQQQEETAAATLLLQGEEEGEED
